According to doi:10.1101/2022.03.13.484121:
No constants are given. Whether binding was seen depends on the method and setting. Some binding calls cover weakened binding; strength is not graded here.

Biological target: native source meprin α from mouse urine (mouse (endogenous in urine)) (UniProt P28825)
Experiment: SEC

binding: binds
B1: native source meprin α from mouse urine (enzyme, UniProt P28825 65-713)
chain: NAMRDPSSRWKLPIPYILADNLELNAKGAILHAFEMFRLKSCVDFKPYEGESSYIIFQKLSGCWSMIGDQQVGQNISIGEGCDFKATIEHEILHALGFFHEQSRTDRDDYVNIWWDQIITDYEHNFNTYDDNTITDLNTPYDYESLMHYGPFSFNKNESIPTITTKIPEFNTIIGQLPDFSAIDLIRLNRMYNCTATHTLLDHCDFEKTNVCGMIQGTRDDADWAHGDSSQPEQVDHTLVGQCKGAGYFMFFNTSLGARGEAALLESRILYPKRKQQCLQFFYKMTGSPADRFEVWVRRDDNAGKVRQLAKIQTFQGDSDHNWKIAHVTLNEEKKFRYVFLGTKGDPGNSSGGIYLDDITLTETPCPAGVWTIRNISQILENTVKGDKLVSPRFYNSEGYGVGVTLYPNGRITSNSGFLGLTFHLYSGDNDAILEWPVENRQAIMTILDQEADTRNRMSLTLMFTTSKNQTSSAINGSVIWDRPSKVGVYDKDCDCFRSLDWGWGQAISHQLLKRRNFLKGDSLIIFVDFKDLTHLNRTEVPASARSTMPRGLLLQGQESPALGESSRKAMLEESLPSSLGQRHPSRQKRSVENTGPMEDHNWPQYFRDPCDPNPCQNEGTCVNVKGMASCRCVSGHAFFYAGERCQAM
